Experimental data: PubChem BioAssay AID602196 (INSERM, 2012)

Aim: 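Genes whose knock-down alters cisplatin killing of lung cancer cells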
System: human A549 lung cancer cells
Knock-down reagent: siRNA pair against human genes
Time to read-out: 48 h transfection before cisplatin; time from cisplatin to read-out not stated
Challenge: cisplatin at a dose killing half of control-siRNA cells; exact dose and duration not given
Read-out: 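Cisplatin cell death as a shift from the 50% death seen with control siRNA; siRNAs toxic or growth-blocking alone scored 0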
Scale: two-siRNA summed score (-2 to +2): higher = both siRNAs protect from cisplatin killing; -2 means both sensitise; mean protection from cisplatin (shift in death) and protection from cisplatin (shift in death), siRNA C and protection from cisplatin (shift in death), siRNA D: higher = protection from cisplatin killing
Hit rule: 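siRNAs harmful alone (LDH or WST-1) get 0; others get +1 for less and -1 for more cisplatin killing; genes are active when the two siRNAs give the same sign, summing to ±2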
Meaning of the calls: active = both siRNAs shift cisplatin killing the same way; inactive = no consistent shift, or siRNA harmful alone
Shown is a random part of about 23,000 reagents. 455 of all reagents (2%) were called active. 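Active includes both protection and sensitisation; some change values fall well beyond the stated -50 to +50 range.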 Entries without a mark were called inactive. Reagents against one gene are numbered here. Reagent sequences are not shown. Not stated in the record: the amount of reagent.

The opening 2 entries, to show the layout:
Gene	reagent no.	two-siRNA summed score (-2 to +2)	mean protection from cisplatin (shift in death) (%)	protection from cisplatin (shift in death), siRNA C (%)	protection from cisplatin (shift in death), siRNA D (%)
ATP1A2	1	0	-3.2	-9.9	3.6
LRRC1	1	0	4.9	14.6	-4.8

Main list, from the start:
Gene	reagent no.	two-siRNA summed score (-2 to +2)	mean protection from cisplatin (shift in death) (%)	protection from cisplatin (shift in death), siRNA C (%)	protection from cisplatin (shift in death), siRNA D (%)
ATP1A2	1	0	-3.2	-9.9	3.6
LRRC1	1	0	4.9	14.6	-4.8
GPR176	1	0	13.6	12.3	14.9
CCR7	1	-1	5.9	-19.9	31.7
STK4	1	0	-0.9	2.7	-4.5
LOC442045	1	0	-5.4	-7.4	-3.4
ACTG1	1	0	-5.6	-5.6	-5.7
ELAVL3	1	0	10.5	7	13.9
LILRA5	1	0	4.4	5.2	3.6
ASB14	1	-1	-18	-16.5	-19.4
UBTD1	1	0	9.3	9.9	8.8
LYZ	1	0	1.7	9.8	-6.3
LOC400849	1	0	11.7	14	9.4
HMG20B	1	0	-14.1	10.6	-38.8
SMR3A	1	0	1.1	1.3	0.9
SMR3A	2	0	1.9	4	-0.1
CMTM4	1	0	4.4	10.4	-1.6
LONRF1	1	0	8.8	8.3	9.4
LOC442653	1	0	16.2	8.6	23.8
COX7C	1	2 (active)	15.4	12.6	18.2
ENTR1P1	1	0	8.6	12.7	4.5
EPHX3	1	0	1.1	-6.8	9
TCF7	1	0	-12.3	-13.1	-11.5
